Values quoted from earlier work in US5141943A, “5-benzyl barbiturate derivatives” (Brown University Research Foundation, priority 1990, dated 1992).
For at least one compound, name, drawing or mass did not settle the structure.

Target: uridine phosphorylase
Conditions: *calculated from Niedzwicki, J. G. et al.; read-out: APP Ki (apparent inhibition constant); cited from earlier work

## O=c1[nH]cc(Cc2cccc(OCc3ccccc3)c2)c(=O)[nH]1 [BBU, 5-benzyloxybenzyl uracil]
  Ki: 9.2 µM
